Some entries share one result that the patent states for a list of compounds. For at least one compound, name, drawing or mass did not settle the structure.
Target: hemoglobin (Homo sapiens, UniProt P68871+P69905)
Test: Resonance Raman spectroscopy: percentage of high oxygen affinity "R" state of oxygenated hemoglobin treated with compounds
Format: biochemical
Conditions: varying mole ratio to Hb tetramer, 532 nm excitation, oxygen atmosphere
From the text: In order to evaluate the effect of the compound of Formula I on stabilizing the oxygenated hemoglobin in the low oxygen affinity “T” state, compounds including 2,3-bisphosphoglycerate (group A0), Z-butylidenephthalide (group A1), Z-ligustilide (group A2), senkyunolide A (group A3), senkyunolide H (group A4) and senkyunolide I (group A5) are mixed with hemoglobin as a function of their mole ratio to hemoglobin, followed by the resonance Raman spectroscopy measurements at 532 nm excitation wavelength under the oxygen atmosphere. The percentages of the high oxygen affinity “R” state for hemoglobin treated with 2,3-bisphosphoglycerate (shown in FIG. 2a, as reference) and various phthalide phyto-compounds (shown in FIGS. 2b to 2f) are analyzed from the resonance Raman spectroscopy measurements. In more specific, the percentage of high oxygen affinity “R” state for each treated hemoglobin was obtained by fitting a simulated spectrum comprised of adjustable weighing factors of the T and R states of pure hemoglobin to the obtained resonance Raman spectrum of treated hemoglobin. […]

Amino acid sequences for entries named in this document (tags omitted). Residues count along the entry.
UniProt P68871, 2-147 limits assumed: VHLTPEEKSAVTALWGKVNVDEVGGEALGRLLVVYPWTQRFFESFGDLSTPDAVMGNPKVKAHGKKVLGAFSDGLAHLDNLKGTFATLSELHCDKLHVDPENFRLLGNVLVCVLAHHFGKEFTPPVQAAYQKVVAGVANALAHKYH
UniProt P69905, 2-142 limits assumed: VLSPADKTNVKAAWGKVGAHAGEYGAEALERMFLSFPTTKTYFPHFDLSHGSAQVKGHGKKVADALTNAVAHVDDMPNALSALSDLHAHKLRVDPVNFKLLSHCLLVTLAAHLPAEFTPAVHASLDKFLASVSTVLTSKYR

In the case of `CCC/C=C1\OC(=O)C2=C1CCC=C2` [Z-ligustilide], the “"R" state suppression efficiency” value is reported as “higher than 20%”.

With `CCCC[C@@H]1OC(=O)C2=C1CCC=C2` [senkyunolide A] the “"R" state suppression efficiency” value was “higher than 20%”.

— patent US10047063B2, “Method for improving the oxygen-releasing ability of hemoglobin to organs or peripheral tissues in human bodies and a medication thereof” (NATIONAL SUN YAT-SEN UNIVERSITY, priority 2014, dated 2018)
